For 4 substances, binding results are on record in paper PMC9584950.

The chains behind the UniProt entries cited, without tags or fusion partners. Residues count along the entry.
UniProt P40763: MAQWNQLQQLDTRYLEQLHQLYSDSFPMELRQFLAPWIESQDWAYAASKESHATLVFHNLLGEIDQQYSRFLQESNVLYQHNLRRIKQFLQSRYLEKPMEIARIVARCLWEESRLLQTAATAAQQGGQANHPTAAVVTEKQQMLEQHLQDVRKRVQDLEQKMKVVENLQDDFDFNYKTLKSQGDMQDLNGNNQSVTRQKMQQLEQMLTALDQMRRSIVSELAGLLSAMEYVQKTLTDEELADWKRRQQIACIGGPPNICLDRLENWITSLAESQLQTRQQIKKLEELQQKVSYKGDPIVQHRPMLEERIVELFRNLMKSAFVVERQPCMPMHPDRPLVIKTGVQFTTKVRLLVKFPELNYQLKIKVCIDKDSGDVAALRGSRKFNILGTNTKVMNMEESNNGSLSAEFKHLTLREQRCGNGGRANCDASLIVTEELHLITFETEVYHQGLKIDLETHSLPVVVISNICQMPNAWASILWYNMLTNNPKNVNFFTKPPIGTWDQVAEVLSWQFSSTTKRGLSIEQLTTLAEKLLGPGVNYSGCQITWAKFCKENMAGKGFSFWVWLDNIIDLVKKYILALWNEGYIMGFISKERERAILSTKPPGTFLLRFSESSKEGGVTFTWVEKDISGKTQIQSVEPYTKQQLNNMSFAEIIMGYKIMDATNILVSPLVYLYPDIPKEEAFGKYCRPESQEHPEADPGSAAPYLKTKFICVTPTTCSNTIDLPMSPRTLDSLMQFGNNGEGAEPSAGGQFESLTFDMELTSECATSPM
UniProt P23284, residues 34-216: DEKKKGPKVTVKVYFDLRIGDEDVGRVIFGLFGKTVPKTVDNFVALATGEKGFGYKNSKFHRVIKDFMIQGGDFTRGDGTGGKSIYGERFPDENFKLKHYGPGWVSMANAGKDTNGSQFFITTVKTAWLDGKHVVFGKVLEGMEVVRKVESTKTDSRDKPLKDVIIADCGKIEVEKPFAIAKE
UniProt O14543: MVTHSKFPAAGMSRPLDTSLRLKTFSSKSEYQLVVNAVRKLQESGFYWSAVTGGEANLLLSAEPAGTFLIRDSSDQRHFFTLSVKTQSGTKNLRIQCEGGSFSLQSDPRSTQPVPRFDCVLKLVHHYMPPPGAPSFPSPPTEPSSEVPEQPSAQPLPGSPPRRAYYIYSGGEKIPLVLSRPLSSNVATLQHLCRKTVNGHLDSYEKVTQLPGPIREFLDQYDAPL

No constants are given. Whether binding was seen depends on the method and setting. In cells and extracts the contact can be indirect. Some binding calls cover weakened binding; strength is not graded here.

Assay [1] concerns the target Signal Transducer and Activator of Transcription 3 (human (endogenous in Caco-2)) (UniProt P40763). Put plainly: co-IP; beads coated with STAT3 antibody or IgG; lysates of IL-6-treated Caco-2 cells with or without PVT1 knockdown; blot for CypB and SOCS3.
Assay [2] has as its target Cyclophilin B (human (endogenous in Caco-2)) (UniProt P23284). Put plainly: co-IP; beads coated with CypB antibody or IgG; lysates of Caco-2 cells with or without IL-6; blot for STAT3 and pSTAT3 (Tyr705).

For “Cyclophilin B (from UniProt P23284 34-216)”, the binding entry in assay [1] is listed as “binds”.
Take “Signal Transducer and Activator of Transcription 3 (from UniProt P40763 1-770)”: the binding entry in assay [2] is given as “binds”.
For the substance “Suppressors Of Cytokine Signalling 3 (from UniProt O14543 1-225)”, the binding entry in assay [1] is listed as “binds”.
“phosphorylated STAT3 (Tyr705) (from UniProt P40763 1-770)”: the binding entry in assay [2] was “binds”.
